Values from PubChem BioAssay AID504791 (Drosophila RNAi Screening Center, 2011)

- Test: 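Genes of the fly required for silencing by miRNA, siRNA or endo-siRNA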 (primary screen)
- Cell system: Drosophila S2-derived reporter cells
- Reagent: long dsRNA against Drosophila genes, about 150-250 ng dsRNA per well (siRNA assay); about 80-120 ng (miRNA assay)
- Duration: about 5 days (siRNA assay); about 4 days (miRNA assay)
- Conditions: copper sulfate induction of reporters: 25 µM (siRNA assay); 200 mM stated (miRNA assay), 1-2 days before reading
- Detection: 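Dual luciferase assay: Renilla to firefly signal ratio in each well, scaled to the mean ratio of its plate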
- Call rule: 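First-pass picks had plate-scaled ratios over 1.5 for the siRNA assay, over 1.6 for the miRNA assay, or under 0.6; two distinct dsRNAs had to score alike on retest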
In all, the deposit lists about 23,000 reagents; shown is a random part of those that have a named target and a result. Of all reagents, 199 (0.86%) are marked active. 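Plate-scaled ratios behind the calls are not deposited; printed light signals are raw; many rows marked increased or decreased are still called inactive.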 The numbers tell different reagents against one gene apart. A plus sign joins genes that one reagent is predicted to hit. Not given: the direction of the score.

gene knocked down | reagent | miRNA reporter change | stable assay Renilla, run 1 (luminescence) | stable assay firefly, run 1 (luminescence) | Outcome
QIL1 | 1 | – | 7711 | 3.38e5 | inactive
osa | 1 | – | 9842 | 6.08e5 | inactive
Osi3 | 1 | – | 5963 | 3.23e5 | inactive
CG31845 (retired record) | 1 | – | 9996 | 6.57e5 | inactive
CG31845 (retired record) | 2 | – | 4835 | 4.17e5 | inactive
aurA | 1 | – | 6495 | 3.61e5 | inactive
CG13634 | 1 | – | 6619 | 3.31e5 | inactive
sky | 1 | – | 13372 | 5.21e5 | inactive
sky | 2 | – | 16767 | 4.86e5 | inactive
sky | 3 | – | 7438 | 4.89e5 | inactive
Scm | 1 | – | 6507 | 3.63e5 | inactive
CG31949 | 1 | – | 6026 | 3.75e5 | inactive
Toll-9 | 1 | – | 7126 | 4.10e5 | inactive
CG15213 | 1 | – | 5216 | 3.79e5 | inactive
CG15247 | 1 | – | 5263 | 3.37e5 | inactive
Nedd8 | 1 | – | 7275 | 5.16e5 | inactive
Trc8 | 1 | – | 6499 | 4.59e5 | inactive
Cpr76Ba | 1 | – | 8146 | 4.68e5 | inactive
CG10898 | 1 | – | 7880 | 5.22e5 | inactive
bora | 1 | reporter ratio raised past the hit cutoff | 9318 | 3.20e5 | active
PPO2 | 1 | – | 8102 | 3.68e5 | inactive
CG7406 | 1 | – | 6043 | 5.40e5 | inactive
CG7406 | 2 | reporter ratio raised past the hit cutoff | – | – | inactive
CG2256 | 1 | – | 5323 | 3.01e5 | inactive
CG4074 + CG4186 | 1 | – | 6998 | 3.65e5 | inactive
CG13614 | 1 | – | 6963 | 2.92e5 | inactive
Rcd-1r + CG13102 | 1 | – | 6782 | 3.66e5 | inactive
dUTPase | 1 | – | 6623 | 4.84e5 | inactive
CG18609 | 1 | – | 6011 | 3.16e5 | inactive
CG9582 | 1 | – | 7026 | 4.44e5 | inactive
Lztr1 | 1 | – | 7659 | 3.96e5 | inactive
Lztr1 | 2 | – | 8120 | 4.18e5 | inactive
sra | 1 | – | 11434 | 5.12e5 | inactive
l(2)37Cd | 1 | – | 14951 | 1.66e6 | inactive
Hrb87F | 1 | reporter ratio raised past the hit cutoff | 14736 | 5.71e5 | inactive
Hrb87F | 2 | reporter ratio raised past the hit cutoff | – | – | inactive
BNIP3 | 1 | – | 8615 | 5.08e5 | inactive
Zip71B | 1 | – | 7719 | 3.38e5 | inactive

As entered above.
CG7406 #1, stable assay firefly, run 1 (luminescence) = 5.40e5
Result of CG9582 under “Outcome”: inactive
Under “stable assay Renilla, run 1 (luminescence)”, CG31845 (retired record) #2 is entered as 4835
Entry of Nedd8 in “Outcome”: inactive
Under “stable assay firefly, run 1 (luminescence)”, CG18609 has 3.16e5
Entry for Lztr1 #1 under “stable assay firefly, run 1 (luminescence)”: 3.96e5

The listing continues.
gene knocked down | reagent | miRNA reporter change | stable assay Renilla, run 1 (luminescence) | stable assay firefly, run 1 (luminescence) | Outcome
CG15478 | 1 | – | 5772 | 3.79e5 | inactive
Send1 | 1 | – | 8431 | 3.87e5 | inactive
SmydA-5 | 1 | – | 6566 | 3.25e5 | inactive
mars | 1 | – | 5144 | 4.01e5 | inactive
CG14034 | 1 | – | 7971 | 3.86e5 | inactive
CG12945 | 1 | – | 7288 | 3.99e5 | inactive
org-1 | 1 | – | 4815 | 2.14e5 | inactive
org-1 | 2 | – | 3936 | 4.57e5 | inactive
CG15422 | 1 | – | 7131 | 3.63e5 | inactive
fbp | 1 | – | 1.13e5 | 1.92e6 | inactive
CG16713 | 1 | – | 6947 | 4.47e5 | inactive
Tip60 | 1 | – | 6975 | 6.01e5 | inactive
PHDP | 1 | – | 5348 | 3.04e5 | inactive
CG33523 | 1 | – | 5754 | 5.16e5 | inactive
CG33523 | 2 | – | 9107 | 5.08e5 | inactive
CG32249 | 1 | – | 3471 | 2.89e5 | inactive
CG32249 | 2 | – | 6011 | 5.10e5 | inactive
CG32249 | 3 | – | 5199 | 5.39e5 | inactive
CG30447 | 1 | – | 6818 | 4.61e5 | inactive
Gp210 | 1 | – | 6915 | 4.55e5 | inactive
Gp210 | 2 | – | 16455 | 1.07e6 | inactive
Mnr | 1 | – | 6686 | 4.07e5 | inactive
Mnr | 2 | – | 5234 | 2.96e5 | inactive
Mnr | 3 | – | 4119 | 4.46e5 | inactive
CG11396 | 1 | – | 8612 | 5.81e5 | inactive
ACXA | 1 | – | 6982 | 3.14e5 | inactive
CG18814 | 1 | – | 7144 | 4.87e5 | inactive
CG14237 | 1 | – | 7134 | 4.19e5 | inactive
CG14237 | 2 | – | 4275 | 3.29e5 | inactive
pho | 1 | – | 6758 | 3.58e5 | inactive
RapGAP1 | 1 | – | 5319 | 4.62e5 | inactive
RapGAP1 | 2 | – | 7091 | 5.35e5 | inactive
RapGAP1 | 3 | – | 1.92e5 | 1.41e5 | inactive
CG18508 | 1 | – | 6290 | 3.90e5 | inactive
CG14302 | 1 | – | 8206 | 3.55e5 | inactive
ACXC | 1 | – | 6326 | 3.35e5 | inactive
CG6686 | 1 | – | 20539 | 7.31e5 | inactive
CG6686 | 2 | reporter ratio raised past the hit cutoff | – | – | inactive
dsh | 1 | – | 5191 | 3.93e5 | inactive
lncRNA:CR32690 | 1 | – | 9224 | 6.77e5 | inactive
CG8475 | 1 | – | 98118 | 2.58e5 | inactive
ed | 1 | – | 29549 | 9.90e5 | inactive
ed | 2 | – | 8471 | 4.30e5 | inactive
ed | 3 | – | 9455 | 5.17e5 | inactive
ed | 4 | – | 8506 | 4.81e5 | inactive
